PubChem BioAssay AID1259308 | NCATS, 2017
Screen: 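Knock-downs that increase output of a recombinant reporter protein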 (primary screen). Cell system: human HEK293 embryonic kidney cells stably expressing firefly luciferase (HEK-CMV-Luc2-Hygro). Knock-down reagent: single siRNA against human genes, 0.8 pmol siRNA per well. Time to read-out: 72 h. Detection: 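Reporter luminescence and viable-cell signal on separate replicate plates, given as percent of non-targeting control and median/MAD z-scores, plus per-cell luciferase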. Direction: total luciferase, z-score and total luciferase, % of control: higher = more reporter protein produced; luciferase per cell, z-score: higher = more reporter output per viable cell; viable cells, % of control: higher = more viable cells. Active means: 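Active when the median/MAD z-score for overall luciferase is greater than 3; a gene was taken forward for validation with new siRNAs if at least two of its three siRNAs passed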. Calls: active = raised luciferase; inactive = no rise.
The deposit covers about 59,000 reagents; below is an unselected part. In the full data, about 1,510 (2.6%) were called active. 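Calls use total luciferase alone and ignore viability, so some active siRNAs may act by altering cell number.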 Reagents against one gene are numbered here.

gene	reagent	total luciferase, z-score	total luciferase, % of control	luciferase per cell, z-score	viable cells, % of control	Call
CD48 (CD48 molecule)	1	-0.769	66.6	-0.214	78.7	inactive
CD48 (CD48 molecule)	2	-0.246	77	0.0901	84	inactive
CD48 (CD48 molecule)	3	-0.717	67.6	-0.487	85.9	inactive
MAFG (MAF bZIP transcription factor G)	1	-0.545	71	1.06	60	inactive
MAFG (MAF bZIP transcription factor G)	2	-0.013	81.6	0.0163	90.8	inactive
MAFG (MAF bZIP transcription factor G)	3	-0.923	63.5	-1.1	94.9	inactive
SLC25A42	1	-0.242	77.1	0.948	67.1	inactive
SLC25A42	2	-0.398	74	-0.531	95.1	inactive
SLC25A42	3	3.23	146	1.56	108	active
LRP1B (LDL receptor related protein 1B)	1	-1.53	51.5	-1.4	83.2	inactive
LRP1B (LDL receptor related protein 1B)	2	-0.285	76.2	-0.11	87.7	inactive
LRP1B (LDL receptor related protein 1B)	3	-0.152	78.9	-0.244	94	inactive
RIT1 (Ras like without CAAX 1)	1	-1.14	59.2	-1.53	98.8	inactive
RIT1 (Ras like without CAAX 1)	2	-1.79	46.2	-1.67	80.1	inactive
RIT1 (Ras like without CAAX 1)	3	1.91	120	2.87	62.9	inactive
LINC00705 (long independently transcribed non-coding RNA 705)	1	-1.48	52.5	-1	76.4	inactive
LINC00705 (long independently transcribed non-coding RNA 705)	2	-0.943	63.1	-0.328	76.9	inactive
LINC00705 (long independently transcribed non-coding RNA 705)	3	0.465	91.1	0.788	82.7	inactive
SSPN (sarcospan)	1	1.13	104	1.1	87.2	inactive
SSPN (sarcospan)	2	-1.1	60	-0.954	86.2	inactive
SSPN (sarcospan)	3	0.101	83.9	1.5	63.2	inactive
HCG27 (HLA complex group 27)	1	0.226	86.4	-0.275	104	inactive
HCG27 (HLA complex group 27)	2	1.14	105	1.26	83.8	inactive
HCG27 (HLA complex group 27)	3	0.649	94.8	0.552	91.6	inactive
EDC4 (enhancer of mRNA decapping 4)	1	0.00671	82	0.286	85	inactive
EDC4 (enhancer of mRNA decapping 4)	2	-1.41	53.9	-0.574	70.1	inactive
EDC4 (enhancer of mRNA decapping 4)	3	2.41	130	1.77	91.1	inactive
ADAM28 (ADAM metallopeptidase domain 28)	1	-0.331	75.3	-0.788	104	inactive
ADAM28 (ADAM metallopeptidase domain 28)	2	-0.124	79.4	-0.636	105	inactive
ADAM28 (ADAM metallopeptidase domain 28)	3	1.01	102	0.772	93	inactive
NPTX2 (neuronal pentraxin 2)	1	0.427	90.4	1.93	60.7	inactive
NPTX2 (neuronal pentraxin 2)	2	1.22	106	1.03	90.5	inactive
NPTX2 (neuronal pentraxin 2)	3	-0.15	78.9	0.0723	86.5	inactive
CTSD (cathepsin D)	1	0.0609	83.1	-0.166	97	inactive
CTSD (cathepsin D)	2	-0.643	69.1	-0.928	98.6	inactive
CTSD (cathepsin D)	3	0.615	94.1	0.477	92.7	inactive
VAPA (VAMP associated protein A)	1	-0.895	64.1	-0.632	84.6	inactive
VAPA (VAMP associated protein A)	2	0.362	89.1	0.178	95	inactive
VAPA (VAMP associated protein A)	3	-0.686	68.2	-0.37	84.1	inactive
SCIN (scinderin)	1	-0.391	74.1	-0.941	106	inactive
SCIN (scinderin)	2	-0.575	70.4	-1.36	113	inactive
SCIN (scinderin)	3	6.67	214	4.07	82.1	active
ALDH8A1 (aldehyde dehydrogenase 8 family member A1)	1	-0.724	67.5	0.276	70.1	inactive
ALDH8A1 (aldehyde dehydrogenase 8 family member A1)	2	-0.171	78.5	-0.753	107	inactive
ALDH8A1 (aldehyde dehydrogenase 8 family member A1)	3	0.188	85.6	0.423	85.6	inactive
RHOG (ras homolog family member G)	1	-0.104	79.8	-0.406	99.2	inactive
RHOG (ras homolog family member G)	2	-0.755	66.9	-0.493	85.1	inactive
RHOG (ras homolog family member G)	3	-0.731	67.4	-0.688	90.2	inactive
ATP23	1	0.459	91	-0.488	116	inactive
ATP23	2	1.81	118	0.909	104	inactive
ATP23	3	0.194	85.7	-0.466	108	inactive
PNPO (pyridoxamine 5'-phosphate oxidase)	1	1.97	121	2.24	74.9	inactive
PNPO (pyridoxamine 5'-phosphate oxidase)	2	4.12	164	1.98	109	active
PNPO (pyridoxamine 5'-phosphate oxidase)	3	-0.804	65.9	2.52	37.9	inactive
KRTAP23-1 (keratin associated protein 23-1)	1	-0.526	71.4	-0.583	93.1	inactive
KRTAP23-1 (keratin associated protein 23-1)	2	-1.66	48.8	-1.39	78.7	inactive
KRTAP23-1 (keratin associated protein 23-1)	3	-1.65	49.1	-1.21	75.4	inactive

Reprinted from the entries so far (10 entries):
gene	reagent	total luciferase, z-score	total luciferase, % of control	luciferase per cell, z-score	viable cells, % of control	Call
ADAM28 (ADAM metallopeptidase domain 28)	3	1.01	102	0.772	93	inactive
NPTX2 (neuronal pentraxin 2)	1	0.427	90.4	1.93	60.7	inactive
NPTX2 (neuronal pentraxin 2)	2	1.22	106	1.03	90.5	inactive
NPTX2 (neuronal pentraxin 2)	3	-0.15	78.9	0.0723	86.5	inactive
CTSD (cathepsin D)	1	0.0609	83.1	-0.166	97	inactive
CTSD (cathepsin D)	2	-0.643	69.1	-0.928	98.6	inactive
CTSD (cathepsin D)	3	0.615	94.1	0.477	92.7	inactive
VAPA (VAMP associated protein A)	1	-0.895	64.1	-0.632	84.6	inactive
VAPA (VAMP associated protein A)	2	0.362	89.1	0.178	95	inactive
VAPA (VAMP associated protein A)	3	-0.686	68.2	-0.37	84.1	inactive
